Here are results for 1 sequence from PMC5418573.

Construct, isoform or probe ends are uncertain for at least one entry. For part of these data: The comparison behind a weaker result is the experiment's own reference, which may not be listed here. For part of these data: At least one verdict was read from the data and is not stated in words by the source. For part of these data: Where a protein sequence is shown, tags need not be part of it.

Holding throughout (experiment): fluorescence anisotropy
(Fluorescence polarisation rises when a labelled molecule tumbles more slowly, as on binding a larger partner.)

The target in data set [1] is T1, PolB1 (Dpo1) (Sulfolobus solfataricus) (UniProt P26811).
T1 sequence (looked up, limits assumed): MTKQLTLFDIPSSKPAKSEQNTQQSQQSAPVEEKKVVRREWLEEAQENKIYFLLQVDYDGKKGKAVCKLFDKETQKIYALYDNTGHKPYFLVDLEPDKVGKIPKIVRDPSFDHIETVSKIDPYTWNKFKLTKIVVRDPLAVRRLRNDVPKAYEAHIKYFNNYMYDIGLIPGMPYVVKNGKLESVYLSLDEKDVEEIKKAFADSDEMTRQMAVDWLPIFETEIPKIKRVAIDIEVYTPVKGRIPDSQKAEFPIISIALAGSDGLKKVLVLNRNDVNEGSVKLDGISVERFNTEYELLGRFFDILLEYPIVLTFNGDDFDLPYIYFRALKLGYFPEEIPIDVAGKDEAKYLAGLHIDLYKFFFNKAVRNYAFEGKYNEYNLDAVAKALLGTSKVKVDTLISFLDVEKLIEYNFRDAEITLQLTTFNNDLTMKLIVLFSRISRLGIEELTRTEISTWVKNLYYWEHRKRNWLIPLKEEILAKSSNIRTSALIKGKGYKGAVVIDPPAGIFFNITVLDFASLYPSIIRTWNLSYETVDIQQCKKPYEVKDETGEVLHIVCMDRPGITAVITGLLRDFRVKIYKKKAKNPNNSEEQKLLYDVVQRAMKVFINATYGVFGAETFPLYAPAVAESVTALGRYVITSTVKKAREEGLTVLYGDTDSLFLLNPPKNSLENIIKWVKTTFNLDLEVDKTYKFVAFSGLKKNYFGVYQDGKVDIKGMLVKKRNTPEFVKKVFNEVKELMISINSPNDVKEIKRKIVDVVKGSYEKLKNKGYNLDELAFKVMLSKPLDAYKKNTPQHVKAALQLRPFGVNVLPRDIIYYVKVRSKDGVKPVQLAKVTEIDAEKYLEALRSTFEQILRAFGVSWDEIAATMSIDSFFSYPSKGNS
To be noted: pH 8; 10 mM Tris pH 8 or pH 6, 100 mM NaCl, 10 nM 6-FAM primer-template, polymerase 0.78-200 nM, 50 °C 10 min (PBP2 alone: 1x TBS); recombinant protein; label: 6-FAM 5' on strand 1.

The test system of data set [2] is PolB1 (Dpo1) + PBP1 + PBP2. To be noted: pH 8; 10 mM Tris pH 8 or pH 6, 100 mM NaCl, 10 nM 6-FAM primer-template, polymerase 0.78-200 nM, 50 °C 10 min (PBP2 alone: 1x TBS); recombinant protein; label: 6-FAM 5' on strand 1.
For data set [3], the system named is PolB1 (Dpo1) + PBP1ΔC + PBP2. The conditions noted are these: pH 8, inhibition depends on the acidic tail; 10 mM Tris pH 8 or pH 6, 100 mM NaCl, 10 nM 6-FAM primer-template, polymerase 0.78-200 nM, 50 °C 10 min (PBP2 alone: 1x TBS); recombinant protein; label: 6-FAM 5' on strand 1.

“CAGGTGGGCTGCGGTCACGTTGTCAGAGGTC / GTGTAATGATGCCATGCGACCTCTGACAACGTGACCGCAGCCCACCTG [FA primer-template junction (FA_label/FA_template)]”: the binding result in data set [1] is listed as “binds”; in data set [2] it was “binds more weakly”; in data set [3] it was “binds”.
